From paper doi:10.1101/2025.06.14.659623
No constants are given. Whether binding was seen depends on the method and setting. In cells and extracts the contact can be indirect. Some binding calls cover weakened binding; strength is not graded here.

Amino acid sequences for entries named in this document (tags omitted). Residues count along the entry.
UniProt Q7Z6E9: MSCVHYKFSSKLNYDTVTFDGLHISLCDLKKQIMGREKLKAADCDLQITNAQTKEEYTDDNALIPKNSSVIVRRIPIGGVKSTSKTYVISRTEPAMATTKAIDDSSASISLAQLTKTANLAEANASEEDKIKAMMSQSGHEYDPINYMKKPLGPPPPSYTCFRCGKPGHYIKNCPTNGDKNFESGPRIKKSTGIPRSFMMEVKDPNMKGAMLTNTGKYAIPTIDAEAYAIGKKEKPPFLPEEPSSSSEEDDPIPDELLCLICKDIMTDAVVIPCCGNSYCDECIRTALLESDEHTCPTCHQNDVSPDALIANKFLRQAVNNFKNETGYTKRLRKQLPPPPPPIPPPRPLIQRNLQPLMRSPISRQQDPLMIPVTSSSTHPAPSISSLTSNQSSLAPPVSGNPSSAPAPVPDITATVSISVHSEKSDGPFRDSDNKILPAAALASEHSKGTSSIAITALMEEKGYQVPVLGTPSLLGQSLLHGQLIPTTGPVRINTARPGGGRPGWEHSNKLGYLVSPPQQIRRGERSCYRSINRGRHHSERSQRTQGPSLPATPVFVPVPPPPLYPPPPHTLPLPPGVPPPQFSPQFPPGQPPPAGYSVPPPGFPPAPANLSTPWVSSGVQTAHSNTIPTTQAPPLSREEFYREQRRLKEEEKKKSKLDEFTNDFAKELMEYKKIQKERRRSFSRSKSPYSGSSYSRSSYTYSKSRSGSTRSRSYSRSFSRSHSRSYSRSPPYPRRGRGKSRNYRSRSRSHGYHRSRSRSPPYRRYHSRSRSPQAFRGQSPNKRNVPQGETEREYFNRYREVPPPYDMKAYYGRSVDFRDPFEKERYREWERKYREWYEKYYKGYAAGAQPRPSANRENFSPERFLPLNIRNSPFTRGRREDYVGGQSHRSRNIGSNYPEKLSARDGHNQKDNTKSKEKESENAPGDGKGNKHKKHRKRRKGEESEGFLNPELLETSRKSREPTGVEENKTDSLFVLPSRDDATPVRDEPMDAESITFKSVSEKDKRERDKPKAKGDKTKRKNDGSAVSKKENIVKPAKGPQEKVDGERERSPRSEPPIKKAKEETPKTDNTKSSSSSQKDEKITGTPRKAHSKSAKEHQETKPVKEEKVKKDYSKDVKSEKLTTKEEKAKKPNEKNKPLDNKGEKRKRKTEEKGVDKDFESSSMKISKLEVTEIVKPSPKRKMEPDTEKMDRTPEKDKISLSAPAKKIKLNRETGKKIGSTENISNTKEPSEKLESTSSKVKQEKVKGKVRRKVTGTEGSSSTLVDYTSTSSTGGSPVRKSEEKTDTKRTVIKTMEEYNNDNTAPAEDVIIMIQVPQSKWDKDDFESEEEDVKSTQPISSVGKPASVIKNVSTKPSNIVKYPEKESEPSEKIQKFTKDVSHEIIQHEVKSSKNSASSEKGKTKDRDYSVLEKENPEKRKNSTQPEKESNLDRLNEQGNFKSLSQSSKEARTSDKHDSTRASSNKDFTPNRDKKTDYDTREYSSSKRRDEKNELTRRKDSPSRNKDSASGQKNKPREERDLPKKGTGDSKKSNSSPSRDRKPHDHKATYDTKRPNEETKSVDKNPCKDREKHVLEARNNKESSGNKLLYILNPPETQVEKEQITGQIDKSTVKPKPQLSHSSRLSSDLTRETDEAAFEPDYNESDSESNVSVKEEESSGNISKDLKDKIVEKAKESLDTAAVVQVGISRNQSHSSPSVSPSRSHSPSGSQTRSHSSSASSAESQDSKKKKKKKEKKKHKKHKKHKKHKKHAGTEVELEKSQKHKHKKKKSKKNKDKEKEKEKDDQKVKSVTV
UniProt Q6DV88, residues 2507-3411: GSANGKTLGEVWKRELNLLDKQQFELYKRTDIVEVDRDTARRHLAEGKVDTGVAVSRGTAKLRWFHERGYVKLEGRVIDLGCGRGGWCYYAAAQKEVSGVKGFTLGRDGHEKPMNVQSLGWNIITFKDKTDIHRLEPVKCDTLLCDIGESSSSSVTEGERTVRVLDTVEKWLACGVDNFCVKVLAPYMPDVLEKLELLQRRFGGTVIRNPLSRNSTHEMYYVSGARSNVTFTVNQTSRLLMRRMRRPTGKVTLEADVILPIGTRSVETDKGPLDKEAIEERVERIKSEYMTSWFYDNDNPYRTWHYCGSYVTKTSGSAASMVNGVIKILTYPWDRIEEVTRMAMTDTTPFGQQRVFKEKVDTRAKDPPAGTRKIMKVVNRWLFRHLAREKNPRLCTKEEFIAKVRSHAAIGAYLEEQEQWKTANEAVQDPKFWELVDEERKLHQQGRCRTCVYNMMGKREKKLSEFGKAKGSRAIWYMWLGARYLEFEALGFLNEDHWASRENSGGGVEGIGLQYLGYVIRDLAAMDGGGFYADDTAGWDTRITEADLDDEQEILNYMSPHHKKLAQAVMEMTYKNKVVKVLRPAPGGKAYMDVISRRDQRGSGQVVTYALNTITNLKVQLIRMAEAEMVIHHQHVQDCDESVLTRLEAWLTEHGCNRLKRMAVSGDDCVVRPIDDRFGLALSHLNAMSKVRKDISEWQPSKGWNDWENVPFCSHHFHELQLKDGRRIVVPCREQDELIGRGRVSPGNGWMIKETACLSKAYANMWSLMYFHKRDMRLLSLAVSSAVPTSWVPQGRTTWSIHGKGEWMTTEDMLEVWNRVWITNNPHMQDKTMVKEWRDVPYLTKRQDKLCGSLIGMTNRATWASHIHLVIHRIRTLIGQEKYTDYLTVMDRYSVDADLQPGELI
UniProt P03314, residues 2507-3411: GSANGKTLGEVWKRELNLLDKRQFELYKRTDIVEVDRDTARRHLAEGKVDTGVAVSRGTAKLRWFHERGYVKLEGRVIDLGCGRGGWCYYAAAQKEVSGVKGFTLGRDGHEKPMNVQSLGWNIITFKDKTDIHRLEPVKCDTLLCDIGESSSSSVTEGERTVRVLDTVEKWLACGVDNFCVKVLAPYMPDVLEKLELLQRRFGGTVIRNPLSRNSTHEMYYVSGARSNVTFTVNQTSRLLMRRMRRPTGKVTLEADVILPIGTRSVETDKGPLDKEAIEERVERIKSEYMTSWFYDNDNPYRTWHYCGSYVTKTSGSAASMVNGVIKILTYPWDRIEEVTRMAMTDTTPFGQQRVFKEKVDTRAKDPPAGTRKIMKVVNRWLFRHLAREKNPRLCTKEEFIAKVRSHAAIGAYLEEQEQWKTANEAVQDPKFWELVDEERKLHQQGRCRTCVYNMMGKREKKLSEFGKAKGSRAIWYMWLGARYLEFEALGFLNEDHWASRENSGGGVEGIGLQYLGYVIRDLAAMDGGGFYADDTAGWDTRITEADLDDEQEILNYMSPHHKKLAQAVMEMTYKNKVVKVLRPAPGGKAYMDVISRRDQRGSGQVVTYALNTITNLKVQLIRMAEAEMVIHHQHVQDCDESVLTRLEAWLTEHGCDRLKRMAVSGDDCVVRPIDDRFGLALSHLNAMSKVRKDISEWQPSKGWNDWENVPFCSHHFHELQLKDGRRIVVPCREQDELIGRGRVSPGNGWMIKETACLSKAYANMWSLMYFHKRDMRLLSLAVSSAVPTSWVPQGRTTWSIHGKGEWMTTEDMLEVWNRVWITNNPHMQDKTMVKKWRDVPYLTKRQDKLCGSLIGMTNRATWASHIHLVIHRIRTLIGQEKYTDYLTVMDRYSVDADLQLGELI

Tests used:
[1] = target: RBBP6 (retinoblastoma binding protein 6), endogenous in Huh7 (human (endogenous in Huh7)) (UniProt Q7Z6E9); assay: co-IP
[2] = target: YFV-Asibi NS5 with C-terminal 2xStrep II affinity tag (yellow fever virus, strain Asibi) (UniProt Q6DV88); assay: co-IP

Substance | binding [1] | binding [2]
YFV-17D NS5 made in infected cells (from UniProt P03314) (enzyme) | binds | –
RBBP6 as detected in the Strep-AP of NS5 truncations (Figure 3H) (from UniProt Q7Z6E9 1-1792) | – | binds
